These are yes or no findings as the source states them, for the method shown. In cells and extracts the contact can be indirect. A yes stands for co-enrichment or nearness to the bait. Other partners may have been found.
B1: SRRM1 (protein, UniProt Q8IYB3 1-904)
chain: MDAGFFRGTSAEQDNRFSNKQKKLLKQLKFAECLEKKVDMSKVNLEVIKPWITKRVTEILGFEDDVVIEFIFNQLEVKNPDSKMMQINLTGFLNGKNAREFMGELWPLLLSAQENIAGIPSAFLELKKEEIKQRQIEQEKLASMKKQDEDKDKRDKEEKESSREKRERSRSPRRRKSRSPSPRRRSSPVRRERKRSHSRSPRHRTKSRSPSPAPEKKEKTPELPEPSVKVKEPSVQEATSTSDILKVPKPEPIPEPKEPSPEKNSKKEKEKEKTRPRSRSRSKSRSRTRSRSPSHTRPRRRHRSRSRSYSPRRRPSPRRRPSPRRRTPPRRMPPPPRHRRSRSPVRRRRRSSASLSGSSSSSSSSRSRSPPKKPPKRTSSPPRKTRRLSPSASPPRRRHRPSPPATPPPKTRHSPTPQQSNRTRKSRVSVSPGRTSGKVTKHKGTEKRESPSPAPKPRKVELSESEEDKGGKMAAADSVQQRRQYRRQNQQSSSDSGSSSSSEDERPKRSHVKNGEVGRRRRHSPSRSASPSPRKRQKETSPRGRRRRSPSPPPTRRRRSPSPAPPPRRRRTPTPPPRRRTPSPPPRRRSPSPRRYSPPIQRRYSPSPPPKRRTASPPPPPKRRASPSPPPKRRVSHSPPPKQRSSPVTKRRSPSLSSKHRKGSSPSRSTREARSPQPNKRHSPSPRPRAPQTSSSPPPVRRGASSSPQRRQSPSPSTRPIRRVSRTPEPKKIKKAASPSPQSVRRVSSSRSVSGSPEPAAKKPPAPPSPVQSQSPSTNWSPAVPVKKAKSPTPSPSPPRNSDQEGGGKKKKKKKDKKHKKDKKHKKHKKHKKEKAVAAAAAAAVTPAAIAAATTTLAQEEPVAAPEPKKETESEAEDNLDDLEKHLREKALRSMRKAQVSPQS
B2: TRNT1 (protein, UniProt Q96Q11 42-434)
chain: TEGLKSLTELFVKENHELRIAGGAVRDLLNGVKPQDIDFATTATPTQMKEMFQSAGIRMINNRGEKHGTITARLHEENFEITTLRIDVTTDGRHAEVEFTTDWQKDAERRDLTINSMFLGFDGTLFDYFNGYEDLKNKKVRFVGHAKQRIQEDYLRILRYFRFYGRIVDKPGDHDPETLEAIAENAKGLAGISGERIWVELKKILVGNHVNHLIHLIYDLDVAPYIGLPANASLEEFDKVSKNVDGFSPKPVTLLASLFKVQDDVTKLDLRLKIAKEEKNLGLFIVKNRKDLIKATDSSDPLKPYQDFIIDSREPDATTRVCELLKYQGEHCLLKEMQQWSIPPFPVSGHDIRKVGISSGKEIGALLQQLREQWKKSGYQMEKDELLSYIKKT
B3: XRN2 (protein, UniProt Q9H0D6 1-950)
chain: MGVPAFFRWLSRKYPSIIVNCVEEKPKECNGVKIPVDASKPNPNDVEFDNLYLDMNGIIHPCTHPEDKPAPKNEDEMMVAIFEYIDRLFSIVRPRRLLYMAIDGVAPRAKMNQQRSRRFRASKEGMEAAVEKQRVREEILAKGGFLPPEEIKERFDSNCITPGTEFMDNLAKCLRYYIADRLNNDPGWKNLTVILSDASAPGEGEHKIMDYIRRQRAQPNHDPNTHHCLCGADADLIMLGLATHEPNFTIIREEFKPNKPKPCGLCNQFGHEVKDCEGLPREKKGKHDELADSLPCAEGEFIFLRLNVLREYLERELTMASLPFTFDVERSIDDWVFMCFFVGNDFLPHLPSLEIRENAIDRLVNIYKNVVHKTGGYLTESGYVNLQRVQMIMLAVGEVEDSIFKKRKDDEDSFRRRQKEKRKRMKRDQPAFTPSGILTPHALGSRNSPGSQVASNPRQAAYEMRMQNNSSPSISPNTSFTSDGSPSPLGGIKRKAEDSDSEPEPEDNVRLWEAGWKQRYYKNKFDVDAADEKFRRKVVQSYVEGLCWVLRYYYQGCASWKWYYPFHYAPFASDFEGIADMPSDFEKGTKPFKPLEQLMGVFPAASGNFLPPSWRKLMSDPDSSIIDFYPEDFAIDLNGKKYAWQGVALLPFVDERRLRAALEEVYPDLTPEETRRNSLGGDVLFVGKHHPLHDFILELYQTGSTEPVEVPPELCHGIQGKFSLDEEAILPDQIVCSPVPMLRDLTQNTVVSINFKDPQFAEDYIFKAVMLPGARKPAAVLKPSDWEKSSNGRQWKPQLGFNRDRRPVHLDQAAFRTLGHVMPRGSGTGIYSNAAPPPVTYQGNLYRPLLRGQAQIPKLMSNMRPQDSWRGPPPLFQQQRFDRGVGAEPLLPWNRMLQTQNAAFQPNQYQMLAGPGGYPPRRDDRGGRQGYPREGRKYPLPPPSGRYNWN
B4: ADNP (protein, UniProt Q9H2P0 1-1102)
chain: MFQLPVNNLGSLRKARKTVKKILSDIGLEYCKEHIEDFKQFEPNDFYLKNTTWEDVGLWDPSLTKNQDYRTKPFCCSACPFSSKFFSAYKSHFRNVHSEDFENRILLNCPYCTFNADKKTLETHIKIFHAPNASAPSSSLSTFKDKNKNDGLKPKQADSVEQAVYYCKKCTYRDPLYEIVRKHIYREHFQHVAAPYIAKAGEKSLNGAVPLGSNAREESSIHCKRCLFMPKSYEALVQHVIEDHERIGYQVTAMIGHTNVVVPRSKPLMLIAPKPQDKKSMGLPPRIGSLASGNVRSLPSQQMVNRLSIPKPNLNSTGVNMMSSVHLQQNNYGVKSVGQGYSVGQSMRLGLGGNAPVSIPQQSQSVKQLLPSGNGRSYGLGSEQRSQAPARYSLQSANASSLSSGQLKSPSLSQSQASRVLGQSSSKPAAAATGPPPGNTSSTQKWKICTICNELFPENVYSVHFEKEHKAEKVPAVANYIMKIHNFTSKCLYCNRYLPTDTLLNHMLIHGLSCPYCRSTFNDVEKMAAHMRMVHIDEEMGPKTDSTLSFDLTLQQGSHTNIHLLVTTYNLRDAPAESVAYHAQNNPPVPPKPQPKVQEKADIPVKSSPQAAVPYKKDVGKTLCPLCFSILKGPISDALAHHLRERHQVIQTVHPVEKKLTYKCIHCLGVYTSNMTASTITLHLVHCRGVGKTQNGQDKTNAPSRLNQSPSLAPVKRTYEQMEFPLLKKRKLDDDSDSPSFFEEKPEEPVVLALDPKGHEDDSYEARKSFLTKYFNKQPYPTRREIEKLAASLWLWKSDIASHFSNKRKKCVRDCEKYKPGVLLGFNMKELNKVKHEMDFDAEWLFENHDEKDSRVNASKTADKKLNLGKEDDSSSDSFENLEEESNESGSPFDPVFEVEPKISNDNPEEHVLKVIPEDASESEEKLDQKEDGSKYETIHLTEEPTKLMHNASDSEVDQDDVVEWKDGASPSESGPGSQQVSDFEDNTCEMKPGTWSDESSQSEDARSSKPAAKKKATMQGDREQLKWKNSSYGKVEGFWSKDQSQWKNASENDERLSNPQIEWQNSTIDSEDGEQFDNMTDGVAEPMHGSLAGVKLSSQQA
B5: CCNL1 (protein, UniProt Q9UK58 1-526)
chain: MASGPHSTATAAAAASSAAPSAGGSSSGTTTTTTTTTGGILIGDRLYSEVSLTIDHSLIPEERLSPTPSMQDGLDLPSETDLRILGCELIQAAGILLRLPQVAMATGQVLFHRFFYSKSFVKHSFEIVAMACINLASKIEEAPRRIRDVINVFHHLRQLRGKRTPSPLILDQNYINTKNQVIKAERRVLKELGFCVHVKHPHKIIVMYLQVLECERNQTLVQTAWNYMNDSLRTNVFVRFQPETIACACIYLAARALQIPLPTRPHWFLLFGTTEEEIQEICIETLRLYTRKKPNYELLEKEVEKRKVALQEAKLKAKGLNPDGTPALSTLGGFSPASKPSSPREVKAEEKSPISINVKTVKKEPEDRQQASKSPYNGVRKDSKRSRNSRSASRSRSRTRSRSRSHTPRRHYNNRRSRSGTYSSRSRSRSRSHSESPRRHHNHGSPHLKAKHTRDDLKSSNRHGHKRKKSRSRSQSKSRDHSDAAKKHRHERGHHRDRRERSRSFERSHKSKHHGGSRSGHGRHRR
B6: CTNND2 (protein, UniProt Q9UQB3 1-1225)
chain: MFARKPPGAAPLGAMPVPDQPSSASEKTSSLSPGLNTSNGDGSETETTSAILASVKEQELQFERLTRELEAERQIVASQLERCKLGSETGSMSSMSSAEEQFQWQSQDGQKDIEDELTTGLELVDSCIRSLQESGILDPQDYSTGERPSLLSQSALQLNSKPEGSFQYPASYHSNQTLALGETTPSQLPARGTQARATGQSFSQGTTSRAGHLAGPEPAPPPPPPPREPFAPSLGSAFHLPDAPPAAAAAALYYSSSTLPAPPRGGSPLAAPQGGSPTKLQRGGSAPEGATYAAPRGSSPKQSPSRLAKSYSTSSPINIVVSSAGLSPIRVTSPPTVQSTISSSPIHQLSSTIGTYATLSPTKRLVHASEQYSKHSQELYATATLQRPGSLAAGSRASYSSQHGHLGPELRALQSPEHHIDPIYEDRVYQKPPMRSLSQSQGDPLPPAHTGTYRTSTAPSSPGVDSVPLQRTGSQHGPQNAAAATFQRASYAAGPASNYADPYRQLQYCPSVESPYSKSGPALPPEGTLARSPSIDSIQKDPREFGWRDPELPEVIQMLQHQFPSVQSNAAAYLQHLCFGDNKIKAEIRRQGGIQLLVDLLDHRMTEVHRSACGALRNLVYGKANDDNKIALKNCGGIPALVRLLRKTTDLEIRELVTGVLWNLSSCDALKMPIIQDALAVLTNAVIIPHSGWENSPLQDDRKIQLHSSQVLRNATGCLRNVSSAGEEARRRMRECDGLTDALLYVIQSALGSSEIDSKTVENCVCILRNLSYRLAAETSQGQHMGTDELDGLLCGEANGKDAESSGCWGKKKKKKKSQDQWDGVGPLPDCAEPPKGIQMLWHPSIVKPYLTLLSECSNPDTLEGAAGALQNLAAGSWKWSVYIRAAVRKEKGLPILVELLRIDNDRVVCAVATALRNMALDVRNKELIGKYAMRDLVHRLPGGNNSNNTASKAMSDDTVTAVCCTLHEVITKNMENAKALRDAGGIEKLVGISKSKGDKHSPKVVKAASQVLNSMWQYRDLRSLYKKDGWSQYHFVASSSTIERDRQRPYSSSRTPSISPVRVSPNNRSASAPASPREMISLKERKTDYECTGSNATYHGAKGEHTSRKDAMTAQNTGISTLYRNSYGAPAEDIKHNQVSAQPVPQEPSRKDYETYQPFQNSTRNYDESFFEDQVHHRPPASEYTMHLGLKSTGNYVDFYSAARPYSELNYETSHYPASPDSWV
B7: ERCC2 (protein, UniProt P18074 1-760)
chain: MKLNVDGLLVYFPYDYIYPEQFSYMRELKRTLDAKGHGVLEMPSGTGKTVSLLALIMAYQRAYPLEVTKLIYCSRTVPEIEKVIEELRKLLNFYEKQEGEKLPFLGLALSSRKNLCIHPEVTPLRFGKDVDGKCHSLTASYVRAQYQHDTSLPHCRFYEEFDAHGREVPLPAGIYNLDDLKALGRRQGWCPYFLARYSILHANVVVYSYHYLLDPKIADLVSKELARKAVVVFDEAHNIDNVCIDSMSVNLTRRTLDRCQGNLETLQKTVLRIKETDEQRLRDEYRRLVEGLREASAARETDAHLANPVLPDEVLQEAVPGSIRTAEHFLGFLRRLLEYVKWRLRVQHVVQESPPAFLSGLAQRVCIQRKPLRFCAERLRSLLHTLEITDLADFSPLTLLANFATLVSTYAKGFTIIIEPFDDRTPTIANPILHFSCMDASLAIKPVFERFQSVIITSGTLSPLDIYPKILDFHPVTMATFTMTLARVCLCPMIIGRGNDQVAISSKFETREDIAVIRNYGNLLLEMSAVVPDGIVAFFTSYQYMESTVASWYEQGILENIQRNKLLFIETQDGAETSVALEKYQEACENGRGAILLSVARGKVSEGIDFVHHYGRAVIMFGVPYVYTQSRILKARLEYLRDQFQIRENDFLTFDAMRHAAQCVGRAIRGKTDYGLMVFADKRFARGDKRGKLPRWIQEHLTDANLNLTVDEGVQVAKYFLRQMAQPFHREDQLGLSLLSLEQLESEETLKRIEQIAQQL

Sequences of proteins named here, by UniProt entry; tags and fusion partners are left off.
UniProt P03372: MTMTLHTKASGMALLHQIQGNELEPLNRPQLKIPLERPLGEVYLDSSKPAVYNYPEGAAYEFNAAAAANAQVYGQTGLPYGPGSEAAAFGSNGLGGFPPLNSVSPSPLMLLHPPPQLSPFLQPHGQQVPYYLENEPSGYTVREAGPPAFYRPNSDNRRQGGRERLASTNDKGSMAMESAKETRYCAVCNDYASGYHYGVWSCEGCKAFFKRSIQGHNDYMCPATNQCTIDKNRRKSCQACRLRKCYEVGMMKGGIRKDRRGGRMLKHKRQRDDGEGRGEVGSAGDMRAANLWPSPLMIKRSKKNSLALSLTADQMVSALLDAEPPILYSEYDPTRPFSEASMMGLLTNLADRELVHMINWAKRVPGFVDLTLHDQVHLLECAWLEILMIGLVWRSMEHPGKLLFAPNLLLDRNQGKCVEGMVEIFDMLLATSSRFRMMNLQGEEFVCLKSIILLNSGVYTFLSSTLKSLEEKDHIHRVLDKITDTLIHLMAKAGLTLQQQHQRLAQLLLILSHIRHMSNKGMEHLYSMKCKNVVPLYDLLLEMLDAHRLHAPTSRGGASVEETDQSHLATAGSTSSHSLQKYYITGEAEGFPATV

molecular target: estrogen receptor alpha (ER) (human (endogenous in MCF-7 and ZR-75)) (UniProt P03372); assay: affinity purification with mass spectrometry; anti-ER antibody (Santa Cruz sc-8002) on Dynabeads Protein G, 1.5 mg lysate of MCF-7 or ZR-75 cells overnight at 4°C; cells starved, vehicle or 10 µM ERX-11 for 2 hr, then 10 nM E2 for 2 hr; the named proteins are ER binders whose co-precipitation was disrupted by ERX-11

binding, binds:
B1
B2
B3
B4
B5
B6
B7
